# Data: the supplement of paper PMC8616043
# Where a name gives a salt, the structure may show the parent alone. The list shows a part of the results. Repeats in this data set agree poorly, so a single value says little.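 Human U-2 OS cells stably expressing a GFP sensor with a nuclear import signal and classical export signal were transfected to produce PR50, a 50-repeat proline–arginine dipeptide from ALS/FTD gene C9ORF72. Nuclear-minus-cytoplasm GFP was scaled from DMSO (low) to PR-only (high), scored against plate test wells; strongly negative scores marked PR-reversing hits.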
# Test system: U-2 OS NCT-C biosensor cells expressing PR50
# Assay: Z-score of normalised NCT-C biosensor translocation index in PR50-expressing cells; higher = more nuclear biosensor (more disrupted nuclear export)
# Conditions: 3 µM; 24 h
row,SMILES,Z-score
1,Clc1ccc(N2CCN(Cc3cc4ccccn4n3)CC2)cc1,inactive: -0.796
2,O=C(O)C1=CCCN(CCON=C(c2ccccc2)c2ccccc2)C1 [NO-711  hydrochloride],inactive: 1.43
3,C=C1CC[C@H]2C(=C)CC[C@H]3C(=C)C(=O)O[C@@H]3[C@@H]12 [Dehydrocostus lactone],inactive: -0.302
4,CNC(=N)NCCC[C@H](N)C(=O)O [NG-Monomethyl-L- arginine acetate],inactive: 0.155
5,C/C=C/C/C=C/CCC(=O)[C@H]1O[C@H]1C(N)=O [Cerulenin],inactive: -0.528
6,CCCCCCCCCCCCCC[C@@H](O)[C@@H](O)[C@@H](CO)NC(C)=O [C2 Phytoceramide],inactive: 0.193
7,COCCc1ccc(OCC(O)CNC(C)C)cc1 (racemic) [(+-)-Metoprolol (+)- tartrate salt],inactive: -0.395
8,"CC(N)(Cc1ccc(O)c(O)c1)C(=O)O (racemic) [(+/-)-3-(3,4-  dihydroxyphenyl)-2- methyl-DL-alanine]",inactive: -0.947
9,CC[C@@H](CO)NCCN[C@@H](CC)CO [Ethambutol Dihydrochloride],inactive: 0.393
10,CC1=C(/C=C/C(C)=C\C=C\C(C)=C\C(=O)O)C(C)(C)CCC1 [9-cis-Retinoic acid],inactive: -0.62
11,CC1=C(/C=C/C(C)=C\C=C\C(C)=C\C(=O)O)C(C)(C)CCC1 [Alitretinoin],inactive: 0.422
12,C[C@@H]1O[C@@H](OC[C@H]2O[C@@H](Oc3cc(O)c4c(=O)cc(-c5ccc(O)cc5)oc4c3)[C@H](O)[C@@H](O)[C@@H]2O)[C@H](O)[C@H](O)[C@H]1O [Isorhoifolin],inactive: -0.0792
13,O=C(/C=C/c1ccc(O)c(O)c1)O[C@@H]1C[C@](O)(C(=O)O)C[C@@H](O)[C@H]1O [Chlorogenic acid],inactive: 0.387
14,C#C[C@]1(O)CC[C@H]2[C@@H]3CCC4=CC(=O)CC[C@@H]4[C@H]3CC[C@@]21CC [Levonorgestrel],inactive: 0.0887
15,"C#CCn1c(=O)c2c(ncn2C)n(C)c1=O [3,7-Dimethyl-1- propargylxanthine]",inactive: -0.224
16,Cn1ccc2cc3c(cc21)CCN3C(=O)Nc1cccnc1,inactive: -0.993
17,O=C(O)CP(=O)(O)O [Phosphonoacetic acid],inactive: -1.05
18,CCC(=O)Nc1cccc(Oc2nc(Nc3ccc(N4CCN(C)CC4)cc3OC)ncc2Cl)c1,inactive: -0.172
19,CO/N=C(\C(=O)N[C@@H]1C(=O)N2C(C(=O)OC(C)OC(C)=O)=C(COC(N)=O)CS[C@H]12)c1ccco1 (stereo not given in full) [Cefuroxime Axetil],inactive: 0.615
20,CCN(CC)CCCCCCCCOC(=O)c1cc(OC)c(OC)c(OC)c1 [TMB-8  hydrochloride],inactive: 0.0754
21,N#CC(C#N)=C(N)/C(C#N)=C/c1cc(O)c(O)c(O)c1 [Tyrphostin 51],inactive: -0.216
22,COc1ccccc1OCC(O)COC(N)=O (stereo not given) [Methocarbamol],inactive: 0.0504
23,Nc1ccn([C@@H]2CS[C@H](CO)O2)c(=O)n1 [Lamivudine],inactive: 0.207
24,Cc1cc(N)c2ccccc2[n+]1CCCCCCCCCC[n+]1c(C)cc(N)c2ccccc21 [Dequalinium chloride hydrate],inactive: 0.222

row,SMILES,Z-score
1,"C[C@@H]1O[C@@H](O[C@@H]2[C@@H](O)[C@H](O)[C@@H](CO)O[C@H]2c2c(O)cc(O)c3c(=O)cc(-c4ccc(O)cc4)oc23)[C@H](O)[C@H](O)[C@H]1O [Vitexin-2""-O-rhamnoside]",inactive: 1.31
2,NNC(=O)CSc1nc2scc(-c3ccccc3)c2c(=O)n1-c1ccccc1,inactive: -0.0254
3,Oc1cc2c(cc1O)C(c1ccccc1)CNCC2 (racemic),inactive: -0.262
4,CC(C)(O)c1ccccc1CC[C@@H](SCC1(CC(=O)O)CC1)c1cccc(/C=C/c2ccc3ccc(Cl)cc3n2)c1 [Montelukast·Na],inactive: -0.407
5,O=C1NC(=O)C(c2ccccc2)(c2ccccc2)N1 [Phenytoin],inactive: 1.8
6,"O=C1NC(=O)C(c2ccccc2)(c2ccccc2)N1 [5,5-  Diphenylhydantoin]",inactive: 0.452
7,CN1Cc2c(N)cccc2C(c2ccccc2)C1 (stereo not given) [Nomifensine maleate],inactive: 0.0691
8,COc1c(N2CCNC(C)C2)c(F)cc2c(=O)c(C(=O)O)cn(C3CC3)c12 (stereo not given) [Gatifloxacin],inactive: 0.088
9,O=C(c1ccccc1)c1ccc2n1CCC2C(=O)O (stereo not given) [Ketorolac Tromethamine],inactive: 0.962
10,O=C(c1ccccc1)c1ccc2n1CCC2C(=O)O (stereo not given) [Ketorolac tris salt],inactive: 0.847
11,CCN(CC)CCOc1ccc(/C(=C(/Cl)c2ccccc2)c2ccccc2)cc1 [Enclomiphene hydrochloride],inactive: 0.254
12,CN(C)CC(c1ccc(O)cc1)C1(O)CCCCC1 (stereo not given) [Desvenlafaxine Succinate Hydrate],inactive: -0.252
13,C/C1=C\CC(C)(C)/C=C/C(=O)/C(C)=C/CC1 [Zerumbone],inactive: -0.107
14,COC(=O)C1=C(C)NC(C)=C(C(=O)OC(C)C)C1c1cccc2nonc12 (stereo not given) [Isradipine],inactive: -0.841
15,CC(C)=CCc1cc2c(cc1O)oc(=O)c1c3ccc(O)cc3oc21 [Psoralidin],inactive: 0.206
16,O=C(O)/C=C/c1cnc[nH]1 [4-Imidazoleacrylic acid],inactive: -0.107
17,O=C(/C=C/N1C[C@H]2C[C@@H]1CN2c1ccccn1)c1ccccc1O,active: -2.23
18,CC1COc2c(N3CCN(C)CC3)c(F)cc3c(=O)c(C(=O)O)cn1c23 (stereo not given) [Ofloxacin],inactive: -0.042
19,O=C(c1ccoc1)N1CCN(c2cc(-c3ccco3)nc3cc(-c4ccccc4)nn23)CC1,inactive: 2.59
20,CCOC(=O)Nc1ccc(NCc2ccc(F)cc2)nc1N [Flupirtine maleate],inactive: -1.04
21,C#C[C@]1(O)CC[C@H]2[C@@H]3CCC4=CCCC[C@@H]4[C@H]3C(=C)C[C@@]21CC [Desogestrel],inactive: 0.00949
22,COc1c2c(nc3ccccc13)OC(C(C)(O)CO)C2 (stereo not given) [Dubinidine],inactive: -0.0123
23,CC(=O)Oc1cc2c(s1)CCN(C(C(=O)C1CC1)c1ccccc1F)C2 (stereo not given) [Prasugrel],inactive: -0.744
24,Cn1cnc([N+](=O)[O-])c1Sc1ncnc2[nH]cnc12 [Azathioprine],inactive: 0.885

row,SMILES,Z-score
1,CC(C)C(=O)Nc1ccc([N+](=O)[O-])c(C(F)(F)F)c1 [Flutamide],inactive: -0.0649
2,OCCN1C[C@H](O)[C@@H](O)[C@H](O)[C@H]1CO [Miglitol],inactive: -0.499
3,CC(=O)OCC[N+](C)(C)C [Acetylcholine Chloride],inactive: 0.831
4,CC1(C)CCC2=C(O1)c1ccccc1C(=O)C2=O [β-Lapachone],inactive: -0.789
5,O=C(O)CSCC(=O)NC1CCSC1=O (stereo not given) [Erdosteine],inactive: -0.619
6,COc1cc(/C=C/C(=O)CC(=O)/C=C/c2ccc(O)c(OC)c2)ccc1O [Curcumin],inactive: -1.21
7,Cc1ccc(S(=O)(=O)Nc2ccccc2N2CCCCC2)s1,inactive: 3.26
8,NCC[C@H](O)C(=O)N[C@@H]1C[C@H](N)[C@@H](O[C@H]2O[C@H](CN)[C@@H](O)[C@H](O)[C@H]2O)[C@H](O)[C@H]1O[C@H]1O[C@H](CO)[C@@H](O)[C@H](N)[C@H]1O [Amikacin Disulfate],inactive: 0.308
9,"NC(C(=O)O)c1cc(O)cc(O)c1 [(S)-3,5-  Dihydroxyphenyl glycine]",inactive: 0.21
10,O=C1c2cccc3c2[C@H](CCC3)CN1[C@@H]1CN2CCC1CC2 [Palonosetron hydrochloride],inactive: -0.405
11,O=C1c2cccc3c2[C@H](CCC3)CN1[C@@H]1CN2CCC1CC2 [Palonosetron·HCl],inactive: -0.469
12,NC(CO)C(=O)NNCc1ccc(O)c(O)c1O (stereo not given) [Benserazide hydrochloride],inactive: 4.33
13,C[C@H]1COc2c(N3CCN(C)CC3)c(F)cc3c(=O)c(C(=O)O)cn1c23 [Levofloxacin·HCl],inactive: 0.264
14,CN(C/C=C/C#CC(C)(C)C)Cc1cccc2ccccc12 [Terbinafine·HCl],inactive: 0.625
15,O=c1[nH]cnc2c1ncn2[C@H]1CC[C@@H](CO)O1 [Didanosine],inactive: -0.276
16,Fc1ccc([C@@H]2CCNC[C@H]2COc2ccc3c(c2)OCO3)cc1 [Paroxetine·HCl],inactive: -0.0994
17,Fc1ccc([C@@H]2CCNC[C@H]2COc2ccc3c(c2)OCO3)cc1 [Paroxetine HCl hemihydrate],inactive: 0.936
18,Nc1nc(O)c2ncn(CCC(CO)CO)c2n1 [Penciclovir],inactive: -0.35
19,Cc1cc(O)c2c(c1)C(=O)c1cc(O)cc(O)c1C2=O [Emodin],inactive: -0.678
20,CCOC(=O)[C@H](CCc1ccccc1)N[C@@H](C)C(=O)N1Cc2cc(OC)c(OC)cc2C[C@H]1C(=O)O [Moexipril·HCl],inactive: -0.823
21,"Nc1ccc2c3c(cccc13)C(=O)NC2=O [4-Amino-1,8- naphthalimide]",inactive: 0.0571
22,CC(N)C(=O)OC(C)(C)Cc1ccc(Cl)cc1 (stereo not given) [Alaproclate hydrochloride],inactive: 1.01

# Pulled one by one from the entries so far, 5 records:
row,SMILES,Z-score
20,CCOC(=O)Nc1ccc(NCc2ccc(F)cc2)nc1N [Flupirtine maleate],inactive: -1.04
1,CC(C)C(=O)Nc1ccc([N+](=O)[O-])c(C(F)(F)F)c1 [Flutamide],inactive: -0.0649
10,CC1=C(/C=C/C(C)=C\C=C\C(C)=C\C(=O)O)C(C)(C)CCC1 [9-cis-Retinoic acid],inactive: -0.62
14,COC(=O)C1=C(C)NC(C)=C(C(=O)OC(C)C)C1c1cccc2nonc12 (stereo not given) [Isradipine],inactive: -0.841
11,CCN(CC)CCOc1ccc(/C(=C(/Cl)c2ccccc2)c2ccccc2)cc1 [Enclomiphene hydrochloride],inactive: 0.254
